In patent US20210104294A1:
No constants are given. Whether binding was seen depends on the method and setting. Binding can be weak; no strength is given.

Molecular target: HLA-C*07:02 (in vitro binding assay) (human)
Test: in vitro peptide-HLA binding assay

| binding | Binder |
| --- | --- |
| binds | NKGPSYGL [SEQ ID NO 173497] |
| binds | AKAPHYVL [SEQ ID NO 173496] |
